Reference: publication PMC7819943, “Rice protein-binding microarrays: a tool to detect cis-acting elements near promoter regions in rice”
The other results are listed elsewhere or left out.

Protein sequences, listed by entry. Tags and fused reporters are not part of them.
UniProt Q0JBA9, entry or part of it: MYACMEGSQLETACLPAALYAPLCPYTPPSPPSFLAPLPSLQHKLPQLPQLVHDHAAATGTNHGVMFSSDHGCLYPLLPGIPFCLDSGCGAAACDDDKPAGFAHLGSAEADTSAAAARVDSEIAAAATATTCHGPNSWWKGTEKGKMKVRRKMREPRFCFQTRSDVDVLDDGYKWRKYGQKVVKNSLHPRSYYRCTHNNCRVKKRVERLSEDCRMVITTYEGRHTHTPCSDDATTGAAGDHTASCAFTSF

target: OsWRKY34 (Oryza sativa, UniProt Q0JBA9 1-250); test: protein-binding microarray (RPBM); PBS, 2% BSA, 51.3 ng/ul salmon testes DNA, 50 uM zinc acetate, 200 nM TF, 25 C, 1 h; high values mean tight binding; conditions: protein: recombinant; tags: N-terminal polyhistidine and DsRed monomer fusion (pET32a); label: CyDye5-dUTP incorporated in the synthesized complementary strand; 3' TTTTT single-stranded linker to array surface; dsDNA, one strand shown
Outline: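 Transcription factors were made in E. coli BL21-CodonPlus as N-terminal fusions to a polyhistidine tag and DsRed, then purified on Ni–NTA. After primer extension with Cy5-dUTP and blocking with 2% BSA, a custom Agilent array was exposed for 1 h at 25 °C to 200 nM protein in PBS, 2% BSA, salmon testes DNA and 50 µM zinc acetate. Washed arrays were scanned on an Axon 4000B, and the binding signal is per-feature fluorescence intensity in arbitrary units.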

Row | Sequence | binding signal
1 | GATCGCCCCGGGCCGGCCCTGACCGCTCGATCGCCCGCCGCGGAGTCACCTAGTGCAG | 8130 fluorescence intensity (a.u.)
2 | TTCCGTCCGATATCGGTATATTCCCGTTCCGACTGTTCCGCGGAGTCACCTAGTGCAG | 10600 fluorescence intensity (a.u.)
3 | CCTTGTTTAGTTGGCAAAAAATTTTGAGCTGACATGTCACCGGAGTCACCTAGTGCAG | 8230 fluorescence intensity (a.u.)
4 | GGGTGGTAAAGCATGTTTTTTGAGGGGAGGGTGGTAAAGCCGGAGTCACCTAGTGCAG | 16000 fluorescence intensity (a.u.)
5 | ATGTCTCCAAGAGCCGAGCAGGTGGGCCCCTAACCATCACCGGAGTCACCTAGTGCAG | 8570 fluorescence intensity (a.u.)
6 | ACGGTCGTTCATTCAGTGGCACAACAGCAAATTACCTTTTCGGAGTCACCTAGTGCAG | 8920 fluorescence intensity (a.u.)
7 | GCAGCGCCTGATCGATTACTACTTCGCCATGGTGCCAACTCGGAGTCACCTAGTGCAG | 8910 fluorescence intensity (a.u.)
8 | ATATATATATATATATATATATATATATATATGCAGCATGCGGAGTCACCTAGTGCAG | 13100 fluorescence intensity (a.u.)
9 | GACAATTATCGCATCCCACGAAATTTCAACTATTACTATTCGGAGTCACCTAGTGCAG | 8040 fluorescence intensity (a.u.)
10 | GTTTCATTTGTAGCTGTTGATTTGACTGTAAACCCCTTTTCGGAGTCACCTAGTGCAG | 8930 fluorescence intensity (a.u.)
11 | AATCTCCTCTGCTCGCCGCGCGCCACTTCCTCACTCCTCGCGGAGTCACCTAGTGCAG | 8560 fluorescence intensity (a.u.)
12 | CCTCCTACTTTCTTGTTACATCTTCGTGAGCATCCTTGTACGGAGTCACCTAGTGCAG | 10000 fluorescence intensity (a.u.)
13 | AGGTGTGGTATATAGGTACCAATTGATGAGTGTTGCTGCTCGGAGTCACCTAGTGCAG | 11100 fluorescence intensity (a.u.)
14 | GATGGTAGGATAAACAAATGGGTAATGGAGGATACGTGCTCGGAGTCACCTAGTGCAG | 8050 fluorescence intensity (a.u.)
15 | CCCAGAGCGCTTCATGCTTTGCCTTTCATCTTCATTCATTCGGAGTCACCTAGTGCAG | 11500 fluorescence intensity (a.u.)
16 | ATTAATTTCGCTTGCTAACACGAGTTTAATCTGCCAATTTCGGAGTCACCTAGTGCAG | 10000 fluorescence intensity (a.u.)
17 | ATTGTATTTCTATATGGACTCTATACTCTACTTCTAATATCGGAGTCACCTAGTGCAG | 9270 fluorescence intensity (a.u.)
18 | TCATCATCCATTCATTCATTCATTCACATCTCCATCGCTACGGAGTCACCTAGTGCAG | 8470 fluorescence intensity (a.u.)
19 | CGCTCCGTCTTCTCCTTCCCCTTCCTGGGCTTCTTCTGCTCGGAGTCACCTAGTGCAG | 8340 fluorescence intensity (a.u.)
20 | AAGGCTTTGTACAGGTTCATTGTACTAGGAGGGGAGGGGTCGGAGTCACCTAGTGCAG | 12100 fluorescence intensity (a.u.)
21 | TTGGATTGGGCTGCGGACCTGCGGTGGAGGGATTCAGGGTCGGAGTCACCTAGTGCAG | 8240 fluorescence intensity (a.u.)

Fetched one by one from above:
Row | Sequence | binding signal
1 | GATCGCCCCGGGCCGGCCCTGACCGCTCGATCGCCCGCCGCGGAGTCACCTAGTGCAG | 8130 fluorescence intensity (a.u.)
5 | ATGTCTCCAAGAGCCGAGCAGGTGGGCCCCTAACCATCACCGGAGTCACCTAGTGCAG | 8570 fluorescence intensity (a.u.)
3 | CCTTGTTTAGTTGGCAAAAAATTTTGAGCTGACATGTCACCGGAGTCACCTAGTGCAG | 8230 fluorescence intensity (a.u.)

Next records

Row | Sequence | binding signal
22 | TTCCACGTTACACAGTATATCTCTCCTATACTATCCAACACGGAGTCACCTAGTGCAG | 8240 fluorescence intensity (a.u.)
23 | TTTCTTGATTTGGTTGGGATTGGTTGTTCTTGGGCTTATCCGGAGTCACCTAGTGCAG | 18900 fluorescence intensity (a.u.)
24 | GCACTACTCCTTTCCTTTTCTTTTTCCCTCCTTGAGATTCCGGAGTCACCTAGTGCAG | 8490 fluorescence intensity (a.u.)
25 | AGCTATTACTTCGTGACCAACTTTGATCGTCCGTCTTATTCGGAGTCACCTAGTGCAG | 13200 fluorescence intensity (a.u.)
26 | GTATGGGTGTGTTTAGTTCTTTGGGTGTAAAGTTTTTAAGCGGAGTCACCTAGTGCAG | 9730 fluorescence intensity (a.u.)
27 | CCCGCCCCGCCGCCTCGTCGCCCGCCCGAGATCCGCTCCGCGGAGTCACCTAGTGCAG | 8580 fluorescence intensity (a.u.)
28 | TGGTGAAATCACCTGGTTCAGTCTCTACCGTCCATACGCACGGAGTCACCTAGTGCAG | 8920 fluorescence intensity (a.u.)
29 | TTCACAGTGTAGTTGTTTTATTTAGCCAGTATTTTTTTTTCGGAGTCACCTAGTGCAG | 8820 fluorescence intensity (a.u.)
30 | GAGTCTTTGGAAGGGGTCATTTTACGGTTTGGTCCCTGGACGGAGTCACCTAGTGCAG | 8350 fluorescence intensity (a.u.)
31 | TTGCCTTTCATGGTGCGCTTTTGTTGCCATTCTCTTCGTGCGGAGTCACCTAGTGCAG | 8340 fluorescence intensity (a.u.)
32 | TTTATACTACTGTCAAAAGGTTCTACAACAACACTTTGTTCGGAGTCACCTAGTGCAG | 8200 fluorescence intensity (a.u.)
33 | GACATTTACATGTACTGATTGCTGATTGCCATTGATTCATCGGAGTCACCTAGTGCAG | 8980 fluorescence intensity (a.u.)
34 | ATCTCTCTTGTTTTCCATTGCCTACCAAGTGCCATATGATCGGAGTCACCTAGTGCAG | 8630 fluorescence intensity (a.u.)
35 | AGCACACAGCTATACCTCTGTTTTTTTTTCTTTTATTCCCCGGAGTCACCTAGTGCAG | 12000 fluorescence intensity (a.u.)
36 | CCTCCGCCGCATCCGCCTCCGCCTCCGCCTTATTGCTCACCGGAGTCACCTAGTGCAG | 11400 fluorescence intensity (a.u.)
37 | CAATTTATCCCAATTATGATCTGATTATACCATTGTTTTCCGGAGTCACCTAGTGCAG | 10300 fluorescence intensity (a.u.)
38 | CTCTCGACCACTTCCATTCCTTCCCGGGCTCGCCGCGCCGCGGAGTCACCTAGTGCAG | 9780 fluorescence intensity (a.u.)
39 | GGGTGTGGAAGCGCCGGGGTTCATGGGGATTGGGGAGGCCCGGAGTCACCTAGTGCAG | 10400 fluorescence intensity (a.u.)
40 | TTTCATCCAACAGAGTTGCTGTTGACCGTTGACCTTTTTGCGGAGTCACCTAGTGCAG | 15700 fluorescence intensity (a.u.)
41 | CAAGAACCACCATCACTTCCCTACCACTCCACTACTAGCCCGGAGTCACCTAGTGCAG | 9900 fluorescence intensity (a.u.)
42 | GCCCCGACACCCGGCGTTCCACGTCCGGCTTTTGCATCTTCGGAGTCACCTAGTGCAG | 10600 fluorescence intensity (a.u.)
